Experimental data published in PubChem BioAssay AID2551 (National Center for Advancing Translational Sciences (NCATS), 2010).
Hit rate of the full screen: of about 310,000 compounds, about 17,000 (5.5%) were called active. The inconclusive results got no clear call from the source; some entries with a clear call stand among them for comparison. The call rests on the fitted dose curve; in most records, active means well fitted inhibition curve with a large enough effect; inconclusive means small, poorly fitted or top-dose-only effect, or effect the other way; inactive means no such curve, though single readings can be large or run the other way. Potencies beside an inconclusive call are fits to weak or partial responses and may not hold up.

The chains behind the UniProt entries cited, without tags or fusion partners. Where a name states a change or a piece, a line headed by the entry shows the natural chain unless it says otherwise.
UniProt P51450: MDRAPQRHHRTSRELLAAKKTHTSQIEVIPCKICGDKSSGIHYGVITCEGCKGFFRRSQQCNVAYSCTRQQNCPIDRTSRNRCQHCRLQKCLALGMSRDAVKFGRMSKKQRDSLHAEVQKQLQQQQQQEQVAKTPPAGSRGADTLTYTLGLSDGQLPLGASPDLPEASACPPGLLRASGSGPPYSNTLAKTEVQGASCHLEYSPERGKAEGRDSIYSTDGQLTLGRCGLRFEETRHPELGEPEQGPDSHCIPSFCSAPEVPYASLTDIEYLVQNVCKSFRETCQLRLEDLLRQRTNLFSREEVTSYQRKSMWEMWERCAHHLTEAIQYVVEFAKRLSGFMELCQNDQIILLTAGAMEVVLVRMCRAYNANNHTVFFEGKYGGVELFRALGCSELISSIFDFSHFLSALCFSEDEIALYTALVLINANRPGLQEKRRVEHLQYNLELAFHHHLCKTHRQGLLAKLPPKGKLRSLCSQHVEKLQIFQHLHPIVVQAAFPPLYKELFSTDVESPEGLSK

Each molecule was assayed against Nuclear receptor ROR-gamma (Mus musculus) (UniProt P51450) (assay: qHTS for inhibitors of ROR gamma transcriptional activity). Conditions: Drosophila S2 Gal4-RORgamma UAS-luciferase reporter, 20 h; activity change, negative = inhibition: at 53.6 µM (top of the series).
Summary of the method: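 A Gal4/UAS one-hybrid system in insect cells: metallothionein-promoter Gal4–ROR gamma fusion plus Photinus luciferase reporter. Copper sulfate 700 uM final, 20 hr ambient incubation, luminescent detection after 10 min with reagent.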
Further: nearly all actives have a fitted effect of over 60% in size.
On the % scale 0 is the no-effect control and ±100 the full control effect; potency means the concentration at half of the fitted maximal effect.

Potency, inconclusive:
O=C(c1ccc(N2CCCCC2)c([N+](=O)[O-])c1)N(Cc1ccccc1)c1ccccn1 12.6 µM [activator, single point]
Cc1ccc(N(Cc2ccc(C(=O)Nc3ccccc3C(=O)NCc3ccco3)cc2)S(C)(=O)=O)cc1C 6.31 µM [inhibitor, single point]
COc1ccc(-n2c(SCC(=O)Nc3ccccc3OC)nc(O)c(Cc3ccccc3)c2=O)cc1 20 µM [activator, single point]
CCOc1ccc(NC(=O)Cn2nc(-c3ccccc3Cl)n(CC)c2=S)cc1 14.1 µM [activator, partial curve]
O=c1c2c([nH]c3ccccc13)CCC2 6.31 µM [activator, full curve]
O=C(CN(c1ccc(Cl)cc1)S(=O)(=O)c1ccccc1)N1CCN(c2ccccc2)CC1 2.82 µM [inhibitor, single point]
COC(=O)c1ccc(-n2nc(C(F)(F)F)c3c2-c2ccoc2CC3)cc1 31.6 µM [activator, single point]
O=C(O)c1ccc(N=NN2CCCCCC2)cc1 25.1 µM [inhibitor, single point]
CCN(CC)CC(=O)Nc1ccc2c(c1)Nc1ccccc1CC2 17.8 µM [inhibitor, single point]
Cc1ccc2nc(/C(C#N)=C/c3cn[nH]c3-c3ccc(F)cc3)[nH]c2c1 12.6 µM [activator, single point]
c1ccc(-c2nc(-c3nccc4ccccc34)oc2-c2ccccc2)cc1 14.1 µM [inhibitor, single point]
CCn1c(SCC(=O)N2CCC(C)CC2)nc2c(c1=O)SCC2 0.0282 µM [inhibitor, full curve, poor fit]
COc1cc(/C=N/NC(=O)c2cccc(NC(=O)c3ccccc3)c2)ccc1O 3.55 µM [activator, single point]
CSc1ccccc1C(=O)C1CCCN(C(=O)c2ccc(N3CCOCC3)cc2)C1 (stereo not given) 11.2 µM [activator, single point]
CCOc1ccccc1-n1c(SCC(=O)N2CCOCC2)nc2ccccc2c1=O 10 µM [activator, single point]
CCOC(=O)c1ccccc1NC(=O)c1cn(-c2ccc(C)c(C)c2)c(=O)c2ccccc12 10 µM [activator, partial curve]
Cc1ccc(NC(=O)n2ncc3c(C)cccc32)cc1F 2.82 µM [inhibitor, full curve]
O=C(Nn1c(-c2ccc(Br)cc2)nc2ccccc2c1=O)c1ccc([N+](=O)[O-])cc1 11.2 µM [activator, single point]
O=C(C1CCCN(S(=O)(=O)c2cccc3nsnc23)C1)N1CCN(c2ccccn2)CC1 (stereo not given) 2.82 µM [activator, single point]
Cc1cc(NC(=O)c2cccc(S(=O)(=O)N3c4ccccc4CC3C)c2)no1 (stereo not given) 25.1 µM [inhibitor, single point]
CCOC(=O)c1[nH]c(=O)[nH]c1COC(=O)c1cc2ccccc2o1 12.6 µM [inhibitor, single point]
COc1ccc(N2C(=O)CC(Cc3ccc(Br)cc3)C2=O)cc1 (stereo not given) 3.98 µM [activator, full curve]
O=C(c1ccc(N2CCN(C(=O)c3ccccc3Br)CC2)cc1)c1cccc(F)c1 12.6 µM [activator, partial curve]
CCc1cccc2c(C(=O)CSc3nncn3C)c[nH]c12 11.2 µM [activator, partial curve]
Cc1c(C(=O)NC2CCCCC2)sc2nc3ccc(N)cc3n12 2.82 µM [activator, full curve, poor fit]
CCn1c(C(=O)NCCCN2CCc3ccccc3C2)cc2sccc21 3.16 µM [inhibitor, single point]
Cc1cc(C)n2nc(SCCOc3ccccc3F)nc2n1 20 µM [activator, partial curve, poor fit]
Cc1cc2nc3c(=O)n(CCc4ccccc4)c(=O)[nH]c3nc2cc1N 17.8 µM [activator, single point]
COc1ccccc1C(=O)NNC(=O)c1cccc(Br)c1 35.5 µM [inhibitor, single point]
Cc1ccc(-c2cc(C(=O)N3CCN(c4ccc(F)cc4)CC3)c3ccccc3n2)o1 10 µM [activator, partial curve]
O=C(CCC(=O)N1CCN(c2ccc(F)cc2)CC1)N1CCN(c2ccc(F)cc2)CC1 17.8 µM [activator, single point]
Cc1ccc(OCC(=O)N/N=C/c2ccc([N+](=O)[O-])o2)cc1 0.282 µM [inhibitor, full curve, poor fit]
O=C(NNC1=C(C(=O)C(F)(F)F)CCC1)c1cccc(Cl)c1 35.5 µM [inhibitor, single point]
CC(C)/C=C1\CC/C(=C\c2ccc(N(C)C)cc2)C1=O 0.891 µM [activator, full curve]
CC(C)(c1ccccc1)c1ccc(OCC(O)CN2CCCC2)cc1 (stereo not given) 0.0501 µM [inhibitor, full curve, poor fit]
CCOc1ccc(S(=O)(=O)N2CCC(C(=O)N3CCCC3)CC2)cc1C 31.6 µM [activator, single point]
COC(=O)/C=C/C(=O)N1CCN(c2cccc(Cl)c2)CC1 3.55 µM [inhibitor, single point]
CC(C)c1ccccc1OCC(=O)NC1CCCc2ccccc21 (stereo not given) 25.1 µM [activator, single point]
CCNc1ncc2nc(CCc3ccccc3)c(=O)n(C)c2n1 10 µM [inhibitor, partial curve]
COc1cccc(CN(C)C(=O)c2cc(S(=O)(=O)N3CCN(c4ccccc4)CC3)ccc2Cl)c1 31.6 µM [activator, single point]
COc1ccc(OC2C(=O)N(Cc3ccc4c(c3)OCO4)C2c2cccs2)cc1 (stereo not given) 17.8 µM [activator, partial curve]

No new results follow: 4 of the compounds above.
Potency, inconclusive:
Cc1cc(NC(=O)c2cccc(S(=O)(=O)N3c4ccccc4CC3C)c2)no1 (stereo not given) 25.1 µM [inhibitor, single point]
CCOC(=O)c1[nH]c(=O)[nH]c1COC(=O)c1cc2ccccc2o1 12.6 µM [inhibitor, single point]
COc1ccc(N2C(=O)CC(Cc3ccc(Br)cc3)C2=O)cc1 (stereo not given) 3.98 µM [activator, full curve]
O=C(c1ccc(N2CCN(C(=O)c3ccccc3Br)CC2)cc1)c1cccc(F)c1 12.6 µM [activator, partial curve]

Next part.

Potency, active:
Cc1ccn2cc(CSc3ccccc3)nc2c1 12.6 µM
Cc1noc(/C=C/c2cccnc2)c1[N+](=O)[O-] 10 µM
Cc1ccccc1C(=O)N/N=C/c1ccc([N+](=O)[O-])s1 1.78 µM
Cc1cc(C(=O)N/N=C/c2c(C)[nH]n(-c3ccccc3)c2=O)n[nH]1 10 µM
CC1(C)c2ssc(=S)c2-c2ccccc2N1C(=O)CSC1=NCCS1 11.2 µM
O=C(NC(=S)NCc1ccccc1)C1CC1 6.31 µM
Cc1nc(C(C)N(C)Cc2nc(-c3ccc4c(c3)OCO4)no2)c(C)s1 (stereo not given) 17.8 µM
COc1ccc(/C=N/NC(N)=S)cc1OC(=O)c1cccc2ccccc12 2.51 µM
Cc1cc(Cl)ccc1NC(=S)NC(C)(C)C 2 µM
O=C(NC1CCCCC1)N1CCN(c2nc(-c3ccccc3)cs2)CC1 11.2 µM
Cc1ccc(NC(=S)NCCN(C2CCCCC2)C2CCCC2)cc1 11.2 µM
COc1cccc(-c2csc(NNC(=O)c3cccs3)n2)c1 2.24 µM
COc1ccc(C(=O)O/N=C(\N)c2ccccn2)cc1 14.1 µM
Cc1c(C(=O)Nc2nc3ccccc3[nH]2)cccc1[N+](=O)[O-] 7.94 µM

Activity change, negative = inhibition, inactive:
O=C(Nc1cc(Cl)ccc1Cl)c1cc(-c2ccco2)on1 -15.9%
Cc1nnc(NC(=O)CCSc2ccccc2)s1 33.8%
Cc1cc(C)nc(NC(N)=NC(C)c2ccccc2)n1 (stereo not given) 2.28%
O=C(NCCOc1ccccc1)c1ccccc1Cl -26.3%
COc1ccccc1NC(=O)N1c2ccc(F)cc2CCC1C (stereo not given) 1.9%
Cc1cc(C)cc(NC(=O)COc2ccc3c(C)c(Cc4ccccc4)c(=O)oc3c2)c1 44.9%
COc1ccc(NC(=O)CCn2c(=O)c3cccn3c3ccccc32)cc1 8.1%
O=C(c1ccc2c(c1)OCO2)C1CCCN(Cc2cccc(C(F)(F)F)c2)C1 (stereo not given) -3.79%
COc1ccc(-n2c(=O)c(-c3cccs3)nc3cnc(N(C)C)nc32)cc1 -8.7%
Cc1cc(C)n2nc(CC(=O)NCc3ccccc3Cl)nc2n1 19.9%
COC(=O)C(C)CCCC(C)CCCC(C)CCCC(C)C (stereo not given) 21.2%
Cc1ccc(C(=O)CN2C(=O)C(C)Oc3ccccc32)cc1 (stereo not given) 13.8%
CC(=O)Nc1ccc(/C=C/c2ccc3c([N+](=O)[O-])cccc3n2)cc1 39.1%
COc1cc(/C=C2\SC(=Nc3ccc(O)cc3)NC2=O)cc(OC)c1OC -0.229%
CC(=O)Nc1ccc(S(=O)(=O)N2CCN=C2c2ccccc2)cc1 5.04%
Cn1cnc([N+](=O)[O-])c1NC(C)(C)C -2.78%
CC(C)NC(=O)CN(c1cccc(Br)c1)S(C)(=O)=O -9.01%
OC1(c2ccc(F)cc2)CN(c2ccccc2)C2=[N+]1CCS2 (stereo not given) 121%
COc1ccc(NC(=O)CCCc2nnc3n(C)c(=O)c4sccc4n23)cc1 0%
O=c1c2sc(-c3ccccc3)cc2nc2n1CCCCC2 -3.05%
